# Measured values: EP4501347A1, “PEPTIDES FOR USE IN THE TREATMENT OF CENTRAL NERVOUS SYSTEM DISORDERS” (Forssmann, Wolf-Georg, priority 2023, dated 2025)
# Not every detail of the peptide structures is certain; ends, links or a residue may be inferred. Residues, ends and D or L forms follow the SMILES beside them.
# Assay: isoelectric point of the peptide
# Assay type: physicochemical
structure (smiles),measurement,value
"CC(C)C[C@H](NC(=O)[C@@H](NC(=O)[C@@H]1CCCN1C(=O)[C@@H](NC(=O)[C@H](CO)NC(=O)[C@@H](NC(=O)[C@H](CCC(N)=O)NC(=O)[C@@H]1CCCN1C(=O)[C@@H](NC(=O)[C@H](CCCCN)NC(=O)[C@H](CCCCN)NC(=O)[C@@H](NC(=O)[C@H](Cc1ccc(O)cc1)NC(=O)[C@H](CCCNC(=N)N)NC(=O)[C@@H](NC(=O)[C@@H](N)CC(C)C)C(C)C)[C@@H](C)O)C(C)C)C(C)C)[C@@H](C)O)[C@@H](C)O)C(=O)O [ALB408-423, LVRYTKKVPQVSTPTL] (H-LVRYTKKVPQVSTPTL-OH)",isoelectric point (pI),10.3
